Earlier results as cited in US9956268B2, “Neuropeptide Y treatment of autoimmune disease” (priority 2012, dated 2018).
At least one compound was matched to its structure with a doubt left.

Tested on: innate immune cytokines IL-1β or TNF-α
Details: oral, recent EAE experiments; cited from earlier work

## C[C@H](N)C(=O)NCC(=O)N[C@H]1CSSC[C@@H](C(=O)O)NC(=O)[C@H](CO)NC(=O)[C@H]([C@@H](C)O)NC(=O)[C@H](Cc2ccccc2)NC(=O)[C@H]([C@@H](C)O)NC(=O)[C@H](CCCCN)NC(=O)[C@H](Cc2c[nH]c3ccccc23)NC(=O)[C@H](Cc2ccccc2)NC(=O)[C@H](Cc2ccccc2)NC(=O)[C@H](CC(N)=O)NC(=O)[C@H](CCCCN)NC1=O [SST, somatostatin]
  reduction of innate immune cytokines IL-1β or TNF-α: no reduction
